Source: ChEMBL document CHEMBL3988442, “University of Dundee, Small-Polar-MMV Screening Library” (2021).

Results are given as percent effect.
How 0% and 100% were set is not recorded. Most values in the screen are low, and negative values occur.
The compounds are a random part of those screened.

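Whole-parasite assay of Trypanosoma brucei over 72 hours; the read-out is not stated. Tested at 30 µM. The record gives no direction; compounds that gave an IC50 in retests scored well above the rest, so higher reads as stronger inhibition. Values scatter widely below zero; nearly all retest evidence comes from the higher of the two concentrations used. Size under these conditions: about 64,000 compounds, about 940 of them at 50% or above in at least one test.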

SMILES: [H][C@]12CC[C@@]3(N=C(CC)N(CCOC)C3=O)[C@@]1([H])CN(S(=O)(=O)CC)C2
percent effect: -50.87

SMILES: CCc1nc(C2CCCN(C(=O)c3ccc(OC(C)C)nc3)C2)no1 (configuration not stated)
percent effect: -38.73

SMILES: Cn1ncc2c(N3CCN(CCC(N)=O)CC3)nc(C3CCCC3)nc21
percent effect: -12.65

SMILES: CCc1ccc(CN2CCC3(CCCN(C(=O)c4cnccn4)C3)C2)o1.O=C(O)C(F)(F)F (configuration not stated)
percent effect: -89.31

SMILES: CCc1cccc(N2CCC(NC(=O)c3cc[nH]n3)CC2)c1
percent effect: 2.947

SMILES: CC(C)c1nn(C)c(N(C)C)c1CNCc1ccc(CO)c(F)c1
percent effect: 20.73

SMILES: Cc1cc(C)n(CC2CCN(CC(O)Cn3cccn3)CC2)n1 (configuration not stated)
percent effect: -52.72

SMILES: COc1cccc(-c2ccc(CNC(=O)c3ccc(=O)n(C)c3)cc2)c1
percent effect: 7.986

SMILES: COc1ccc2cccc(CC(=O)NCCCc3n[nH]c(C)n3)c2c1
percent effect: -11.24

SMILES: CC1COCCN1Cc1nc(C(C)(C)C)no1 (configuration not stated)
percent effect: -21.92

SMILES: CCC(NC(=O)C1CCN(S(C)(=O)=O)CC1)c1ccc(OC)cc1 (configuration not stated)
percent effect: -21.57

SMILES: FC(F)(F)c1c[nH]c(C2CCN(c3ncccn3)CC2)n1
percent effect: -88.94

SMILES: CCN(Cc1ccncc1)C(=O)c1cc(C)c(C)c(S(N)(=O)=O)c1
percent effect: -0.08341

SMILES: Cn1nc(C2CN(C(=O)c3cscn3)C2)c2nccnc21
percent effect: 0.9117

SMILES: CC(C)c1nccn1C1CCCN(C(=O)c2ccc(=O)n(C)n2)C1 (configuration not stated)
percent effect: -13.08

SMILES: C/C=C(\C)CN1C[C@H](NC(=O)CN2CCCC2=O)[C@@H](c2ccc(C)o2)C1
percent effect: -56.6

SMILES: CC1CCN(c2cc(-n3cnc(C(=O)N4CCSCC4)c3)ncn2)CC1
percent effect: 44.17

SMILES: O=C(NCC1COCc2c(-c3cccnc3)nnn2C1)c1cccs1.O=C(O)C(F)(F)F (configuration not stated)
percent effect: -15.58

SMILES: COC(=O)N1CCC(Nc2ccc(C#N)c(Cl)c2)C1 (configuration not stated)
percent effect: 12.77

SMILES: Cc1nn(C)cc1C1CC(=O)Nc2c1cnn2C(C)(C)C (configuration not stated)
percent effect: -1.717

SMILES: O=C1C(N2CCN(c3ccccc3Cl)CC2)CCN1C1CCOCC1 (configuration not stated)
percent effect: -51.53

SMILES: CC(C)C(=O)NC1CCN(CCO)CC1
percent effect: -37.3

SMILES: CC(NC(=O)c1ccc(=O)n(C)c1)c1ccc(OCC2CC2)c(F)c1 (configuration not stated)
percent effect: 19.82

SMILES: CC(C)(C)c1cc(NC(=O)CN2CCCC(Cn3cncn3)C2)on1 (configuration not stated)
percent effect: -35.64

SMILES: COCCN1CCC(CNC(=O)C2(c3ccc(F)cc3)CCC2)CC1
percent effect: -19.8

SMILES: CCn1ncc2c1C(COCC1CC1)CN(C(=O)c1ccncn1)C2.O=C(O)C(F)(F)F (configuration not stated)
percent effect: -0.6882

SMILES: Cc1noc(C)c1CSc1nc(=O)ccn1C(C)C
percent effect: 17.23

SMILES: CC(C)c1nn(C)c(N(C)C)c1CNCc1ccnc(N(C)C)c1
percent effect: -7.417

SMILES: CC(C)c1ccc(-n2ncc(C(=O)N(C)C3CCN(C)CC3)c2N)cc1
percent effect: -7.903

SMILES: O=C(NCC1CCS(=O)(=O)C1)N(Cc1ccncc1)C1CC1 (configuration not stated)
percent effect: -2.75

SMILES: Cc1ccc2c(c1)nc1n2[C@@H](CNC(=O)c2cccnc2)COC1
percent effect: -2.769

SMILES: OC1(CN2CCCC2)COCCN(c2ncnc3[nH]ccc23)C1 (configuration not stated)
percent effect: 0.5734

SMILES: COc1cccc(N2CCN(C(=O)CCO)CC2=O)c1
percent effect: -56.75

SMILES: CCCC(NC(=O)c1cc(C2CC2)[nH]n1)c1nnc2ccccn12 (configuration not stated)
percent effect: -46.73

SMILES: CC(C)N1CC(c2ncc(-c3ccc4c(c3)OCCO4)[nH]2)CC1=O (configuration not stated)
percent effect: -20.42

SMILES: c1cnn(CC2CN(Cc3nnc(C4CC4)o3)CCO2)c1 (configuration not stated)
percent effect: -24.44

SMILES: Cc1nc(C)c(C(=O)N2Cc3ccccc3OCC2CN(C)C)o1.Cl.Cl (configuration not stated)
percent effect: -20.04

SMILES: O=C(c1sccc1Cl)N1CCC(Cn2cc(CO)nn2)CC1
percent effect: 11.03

SMILES: COc1cc(-n2cccc2)c(Cl)cc1C(=O)NS(C)(=O)=O
percent effect: 3.718

SMILES: CCOc1ncccc1NC(=O)Nc1c(C)nn(C(C)C)c1C
percent effect: 4.061

SMILES: Cc1ccc(N2CCN(Cc3ccccc3)C3(CCNCC3)C2=O)cn1.O=C(O)C(F)(F)F
percent effect: -63.88

SMILES: CCc1nc(CN2CCCN(C(=O)c3ccco3)CC2)cs1
percent effect: -14.15

SMILES: CC1CN(C(=O)C2(c3cccc(F)c3)CCOCC2)CCO1 (configuration not stated)
percent effect: -7.005

SMILES: Cn1cc2ncn([C@H]3CCN(Cc4ccccc4)C3)c(=O)c2n1
percent effect: 7.31

SMILES: CCc1c(C(=O)N2CCC3(CCCN(CCO)C3=O)C2)csc1C (configuration not stated)
percent effect: -28.09

SMILES: CC(Cn1cccn1)NC(=O)Nc1ccc(F)cc1 (configuration not stated)
percent effect: -29.21

SMILES: Cc1nc(CN2CCCC2c2nc(C(C)C)no2)cs1 (configuration not stated)
percent effect: 1.764

SMILES: CCOc1cc(C(=O)N2CCCC(n3cncn3)C2)ccc1C (configuration not stated)
percent effect: 4.048

SMILES: Cc1ccc(F)cc1-n1c(CN(C)S(C)(=O)=O)n[nH]c1=O
percent effect: -0.5757

SMILES: CCCn1cc(C(=O)NCCCC(N)=O)c2ccccc21
percent effect: 0.6414

SMILES: N#Cc1cccc(S(=O)(=O)NC(=O)CCOCC(F)(F)F)c1
percent effect: 72.29

SMILES: Cc1ccc2c(n1)N(CCN(C)C)CCN(C(=O)c1ccoc1)C2.O=C(O)C(F)(F)F.O=C(O)C(F)(F)F
percent effect: -21.2

SMILES: CC(=O)CN1CCC2(CC1)c1ccccc1[C@@H](N1CCSCC1)[C@@H]2O
percent effect: -3.282

SMILES: O=C1CCC(c2ccc(Cl)cc2)=NN1CN1CCSCC1
percent effect: -1.289

The last 4 entries again:

* N#Cc1cccc(S(=O)(=O)NC(=O)CCOCC(F)(F)F)c1 : 72.29%
* Cc1ccc2c(n1)N(CCN(C)C)CCN(C(=O)c1ccoc1)C2.O=C(O)C(F)(F)F.O=C(O)C(F)(F)F : -21.2%
* CC(=O)CN1CCC2(CC1)c1ccccc1[C@@H](N1CCSCC1)[C@@H]2O : -3.282%
* O=C1CCC(c2ccc(Cl)cc2)=NN1CN1CCSCC1 : -1.289%